Laboratory results taken from PubChem BioAssay AID200 (DTP/NCI, 2004).
The list shows only some results of the screen, not a fair sample: it gathers some chemical classes. Not every dose and run of a compound is shown. T/C gives the treated animals as a percentage of the vehicle group. Some entries give survivors of the animals treated and no T/C: the source files T/C as zero there, which appears to mark a toxic dose or a test without result, not a measured value. Some doses without a T/C left all or most animals alive at the check, yet need not have been tolerated: the source hardly ever lists a survival T/C far under the control, and the zero likely stands for such cases as well. Survivors were counted at the toxicity check, usually on the fifth day, unless a day is given; later deaths do not show. Schedule codes are those of the source, read here as Q, the interval in days (D) or hours (H), X, the number of doses. Some doses were run more than once; the values are given in rising order. Some complexes appear as separate parts, the way the source draws them; their charges need not add up. For survival time, the PubChem record calls one and a half times the control and up active, and a quarter to a half above the control has no call in these data; cut-offs in other NCI protocols can differ. Some T/C values carry the count of animals alive at the toxicity check (mostly the fifth day); where neither a count nor a note follows, no animal had died by that day.

System: B6C3F1 mice, B16 melanoma ip, median survival T/C
Assay: NCI In Vivo Anticancer Drug Screen. Data for tumor model B16 Melanoma (intraperitoneal) in B6C3F1 mice
Conditions: T/C endpoint: median survival time, higher T/C = longer survival
Description: The antitumor activity of compounds was measured in mice bearing transplantable tumors. Survival or tumor size were measured and the results are expressed as the measurement made in the treated group (T) divided by the measurement made in the vehicle treated control group (C). The tumor model used in this assay is B16 Melanoma (intraperitoneal) in B6C3F1 mice

[1] = dose: 6.25 mg/kg/injection, schedule: Q01DX009 (ip), vehicle: Klucel (hydroxypropylcellulose) (HPC)
[2] = dose: 12.5 mg/kg/injection, schedule: Q01DX009 (ip), vehicle: Klucel (hydroxypropylcellulose) (HPC)
[3] = dose: 25.0 mg/kg/injection, schedule: Q01DX009 (ip), vehicle: Klucel (hydroxypropylcellulose) (HPC)
[4] = dose: 50.0 mg/kg/injection, schedule: Q01DX009 (ip), vehicle: Klucel (hydroxypropylcellulose) (HPC)
[5] = dose: 100.0 mg/kg/injection, schedule: Q01DX009 (ip), vehicle: Klucel (hydroxypropylcellulose) (HPC)
[6] = dose: 25.0 mg/kg/injection, schedule: Q01DX009 (ip), vehicle: saline with Tween-80
[7] = dose: 50.0 mg/kg/injection, schedule: Q01DX009 (ip), vehicle: saline with Tween-80
[8] = dose: 100.0 mg/kg/injection, schedule: Q01DX009 (ip), vehicle: saline with Tween-80
[9] = dose: 200.0 mg/kg/injection, schedule: Q01DX009 (ip), vehicle: saline with Tween-80
[10] = dose: 12.5 mg/kg/injection, schedule: Q01DX009 (ip), vehicle: saline
[11] = dose: 25.0 mg/kg/injection, schedule: Q01DX009 (ip), vehicle: saline
[12] = dose: 50.0 mg/kg/injection, schedule: Q01DX009 (ip), vehicle: saline
[13] = dose: 100.0 mg/kg/injection, schedule: Q01DX009 (ip), vehicle: saline
[14] = dose: 200.0 mg/kg/injection, schedule: Q01DX009 (ip), vehicle: saline
[15] = dose: 400.0 mg/kg/injection, schedule: Q01DX009 (ip), vehicle: saline with Tween-80
[16] = dose: 400.0 mg/kg/injection, schedule: Q01DX009 (ip), vehicle: saline

Cc1ccc(N(CCCl)CCCl)cc1C
T/C [1]: 126 % of control
T/C [2]: 129 % of control
T/C [3]: 152 % of control
T/C [4]: 189 % of control
T/C [5]: 172 % of control

COc1ccc(N(CCCl)CCCl)cc1OC
T/C (dose: 3.13 mg/kg/injection, schedule: Q01DX009 (ip), vehicle: Klucel (hydroxypropylcellulose) (HPC)): 123 % of control
T/C [1]: 135 % of control
T/C [2]: 165 % of control
T/C [3]: 183 % of control
survivor count [4]: 10 of 10

CCCCOc1ccc(N(CCCl)CCCl)cc1
T/C [1]: 125 % of control
T/C [2]: 125 % of control
survivor count [3]: 10 of 10
survivor count [4]: 10 of 10

NNC(=O)NP(=O)(NC(=O)NN)NC(=O)NN
T/C [6]: 87 % of control [9 of 10 alive]
T/C [7]: 96 % of control
T/C [8]: 99 % of control
T/C [9]: 101 % of control

Cc1cc(N(CCCl)CCCl)ccc1N
T/C (dose: 0.13 mg/kg/injection, schedule: Q01DX009 (ip), vehicle: Klucel (hydroxypropylcellulose) (HPC)): 119 % of control
T/C (dose: 0.25 mg/kg/injection, schedule: Q01DX009 (ip), vehicle: Klucel (hydroxypropylcellulose) (HPC)): 131 % of control
T/C (dose: 0.5 mg/kg/injection, schedule: Q01DX009 (ip), vehicle: Klucel (hydroxypropylcellulose) (HPC)): 145 % of control
T/C (dose: 1.0 mg/kg/injection, schedule: Q01DX009 (ip), vehicle: Klucel (hydroxypropylcellulose) (HPC)): 137 % of control
T/C (dose: 2.0 mg/kg/injection, schedule: Q01DX009 (ip), vehicle: Klucel (hydroxypropylcellulose) (HPC)): 108 % of control
survivor count (dose: 4.0 mg/kg/injection, schedule: Q01DX009 (ip), vehicle: Klucel (hydroxypropylcellulose) (HPC)): 10 of 10

C[As](C)SC1OC(CO)C(O)C(O)C1O (stereo unspecified)
T/C (dose: 3.12 mg/kg/injection, schedule: Q01DX009 (ip), vehicle: saline): 98 and 102 % of control
T/C (dose: 6.25 mg/kg/injection, schedule: Q01DX009 (ip), vehicle: saline): 88 and 99 % of control
T/C [10]: 92 and 99 % of control
T/C [11]: 108 % of control
survivor count [11]: 10 of 10
T/C [12]: 103 and 124 % of control
survivor count [13]: 4 of 10 and 6 of 10

Nc1ccc(N(CCCl)CCCl)cc1
T/C (dose: 0.5 mg/kg/injection, schedule: Q01DX005 (iv), vehicle: saline): 105 % of control
T/C (dose: 1.0 mg/kg/injection, schedule: Q01DX005 (iv), vehicle: saline): 104 % of control
T/C (dose: 2.0 mg/kg/injection, schedule: Q01DX005 (iv), vehicle: saline): 116 % of control
survivor count (dose: 4.0 mg/kg/injection, schedule: Q01DX005 (iv), vehicle: saline): 10 of 10
survivor count (dose: 8.0 mg/kg/injection, schedule: Q01DX005 (iv), vehicle: saline): 10 of 10
T/C (dose: 25.0 micrograms/kg/injection, schedule: Q01DX009 (ip), vehicle: saline): 98 % of control
T/C (dose: 50.0 micrograms/kg/injection, schedule: Q01DX009 (ip), vehicle: saline): 98 % of control
T/C (dose: 100.0 micrograms/kg/injection, schedule: Q01DX009 (ip), vehicle: saline): 106 % of control
T/C (dose: 200.0 micrograms/kg/injection, schedule: Q01DX009 (ip), vehicle: saline): 113 % of control

[Au].[C-]#N.[C-]#N
T/C (dose: 0.62 mg/kg/injection, schedule: Q01DX009 (ip), vehicle: saline): 90 % of control
T/C (dose: 1.25 mg/kg/injection, schedule: Q01DX009 (ip), vehicle: saline): 96 % of control
T/C (dose: 2.5 mg/kg/injection, schedule: Q01DX009 (ip), vehicle: saline): 93 % of control
T/C (dose: 5.0 mg/kg/injection, schedule: Q01DX009 (ip), vehicle: saline): 91 % of control
T/C (dose: 10.0 mg/kg/injection, schedule: Q01DX009 (ip), vehicle: saline): 95 % of control [8 of 10 alive]
survivor count (dose: 20.0 mg/kg/injection, schedule: Q01DX009 (ip), vehicle: saline): 0 of 10

NC1CCCCC1.O=P(O)(NCCCO)N(CCCl)CCCl
T/C [11]: 116 % of control
T/C [12]: 143 % of control
T/C [13]: 165 % of control
T/C [14]: 126 % of control

NC(=O)c1[nH]cnc1/N=N\N(CCCl)CCCl
T/C (dose: 16.0 mg/kg/injection, schedule: Q01DX009 (ip), vehicle: other): 110 % of control
T/C (dose: 32.0 mg/kg/injection, schedule: Q01DX009 (ip), vehicle: other): 142 % of control
T/C (dose: 64.0 mg/kg/injection, schedule: Q01DX009 (ip), vehicle: other): 160 % of control
T/C (dose: 128.0 mg/kg/injection, schedule: Q01DX009 (ip), vehicle: other): 108 % of control
survivor count (dose: 256.0 mg/kg/injection, schedule: Q01DX009 (ip), vehicle: other): 10 of 10

ICCN(CCI)c1cccc2ccccc12
T/C (dose: 3.12 mg/kg/injection, schedule: Q01DX009 (ip), vehicle: Klucel (hydroxypropylcellulose) (HPC)): 92 and 196 % of control
survivor count [1]: 10 of 10
survivor count [2]: 1 of 10 and 10 of 10
survivor count [3]: 1 of 10 and 9 of 10
survivor count [4]: 0 of 10 and 10 of 10
survivor count [5]: 0 of 10 and 7 of 10

ClC1CSC1
T/C [6]: 96 % of control
T/C (dose: 50.0 mg/kg/injection, schedule: Q01DX009 (ip), vehicle: saline with Tween-80, evaluated on day 45): 95 % of control
T/C (dose: 50.0 mg/kg/injection, schedule: Q01DX009 (ip), vehicle: saline with Tween-80, evaluated on day 60): 90 % of control
T/C (dose: 100.0 mg/kg/injection, schedule: Q01DX009 (ip), vehicle: saline with Tween-80, evaluated on day 45): 108 % of control
T/C (dose: 100.0 mg/kg/injection, schedule: Q01DX009 (ip), vehicle: saline with Tween-80, evaluated on day 60): 91 % of control
T/C [9]: 98 % of control
survivor count [9]: 7 of 10
T/C [15]: 91 % of control
survivor count [15]: 0 of 10

Cc1ccc(Sc2ccc([N+](=O)[O-])cc2[N+](=O)[O-])c([N+](=O)[O-])c1
T/C [10]: 108 % of control
T/C [11]: 111 % of control
T/C [12]: 106 % of control
T/C [13]: 105 % of control
T/C [14]: 110 % of control
T/C [16]: 120 % of control

ClP1(Cl)=NP(Cl)(Cl)=NP(Cl)(Cl)=NP(Cl)(Cl)=N1
T/C [2]: 92 % of control
T/C [3]: 91 % of control [9 of 10 alive]
T/C [4]: 92 % of control
T/C [5]: 91 % of control [9 of 10 alive]
T/C (dose: 200.0 mg/kg/injection, schedule: Q01DX009 (ip), vehicle: Klucel (hydroxypropylcellulose) (HPC)): 92 % of control
survivor count (dose: 400.0 mg/kg/injection, schedule: Q01DX009 (ip), vehicle: Klucel (hydroxypropylcellulose) (HPC)): 10 of 10

N/C(=N\[N+](=O)[O-])N(CCO[N+](=O)[O-])N=O
T/C (dose: 6.25 mg/kg/injection, schedule: Q01DX009 (ip), vehicle: saline with Tween-80): 127 % of control
T/C (dose: 12.5 mg/kg/injection, schedule: Q01DX009 (ip), vehicle: saline with Tween-80): 147 % of control
T/C [6]: 133 % of control
T/C [7]: 135 % of control

CC1(C)CN1P(=O)(Nc1ccccn1)N1CC1(C)C (stereo unspecified)
T/C [7]: 103 % of control
T/C [8]: 109 % of control
T/C [9]: 139 % of control
survivor count [15]: 0 of 10

CC1(C)CN1P(=O)(Nc1ncccn1)N1CC1(C)C (stereo unspecified)
T/C [10]: 106 % of control [9 of 10 alive]
T/C [11]: 123 % of control
T/C [12]: 137 % of control
T/C [13]: 149 % of control
T/C [14]: 143 % of control
T/C [16]: 191 % of control
